# Experimental data published in the supplement of paper PMC7666118.
# Protein sequences, listed by entry. Tags and fused reporters are not part of them. Lines headed by an entry give the natural chain unless they say otherwise; changes in a name come on top.
# UniProt Q9Y3Z3: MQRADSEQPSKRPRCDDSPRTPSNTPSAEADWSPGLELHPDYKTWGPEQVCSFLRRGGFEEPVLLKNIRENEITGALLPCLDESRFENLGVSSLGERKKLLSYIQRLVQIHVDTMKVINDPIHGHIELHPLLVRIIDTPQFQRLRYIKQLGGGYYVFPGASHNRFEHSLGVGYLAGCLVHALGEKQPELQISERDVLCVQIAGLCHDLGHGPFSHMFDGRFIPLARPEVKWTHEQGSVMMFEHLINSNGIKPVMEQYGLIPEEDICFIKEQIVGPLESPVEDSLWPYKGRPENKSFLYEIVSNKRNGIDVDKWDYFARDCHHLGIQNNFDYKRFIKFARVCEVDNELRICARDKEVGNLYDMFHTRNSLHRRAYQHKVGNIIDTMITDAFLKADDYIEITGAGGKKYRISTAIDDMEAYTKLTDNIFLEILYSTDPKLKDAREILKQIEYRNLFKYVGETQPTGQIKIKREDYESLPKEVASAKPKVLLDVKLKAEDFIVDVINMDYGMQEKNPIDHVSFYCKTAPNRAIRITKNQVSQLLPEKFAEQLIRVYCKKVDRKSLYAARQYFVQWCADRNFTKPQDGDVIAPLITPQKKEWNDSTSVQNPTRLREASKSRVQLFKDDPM
# UniProt Q9Y3A5: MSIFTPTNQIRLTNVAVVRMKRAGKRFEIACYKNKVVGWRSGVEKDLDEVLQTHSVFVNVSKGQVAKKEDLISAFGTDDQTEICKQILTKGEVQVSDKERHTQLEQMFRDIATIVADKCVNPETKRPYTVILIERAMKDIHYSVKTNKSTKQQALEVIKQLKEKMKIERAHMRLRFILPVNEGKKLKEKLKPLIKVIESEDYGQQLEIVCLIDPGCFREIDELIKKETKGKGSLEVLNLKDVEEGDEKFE
# UniProt Q9UPN7: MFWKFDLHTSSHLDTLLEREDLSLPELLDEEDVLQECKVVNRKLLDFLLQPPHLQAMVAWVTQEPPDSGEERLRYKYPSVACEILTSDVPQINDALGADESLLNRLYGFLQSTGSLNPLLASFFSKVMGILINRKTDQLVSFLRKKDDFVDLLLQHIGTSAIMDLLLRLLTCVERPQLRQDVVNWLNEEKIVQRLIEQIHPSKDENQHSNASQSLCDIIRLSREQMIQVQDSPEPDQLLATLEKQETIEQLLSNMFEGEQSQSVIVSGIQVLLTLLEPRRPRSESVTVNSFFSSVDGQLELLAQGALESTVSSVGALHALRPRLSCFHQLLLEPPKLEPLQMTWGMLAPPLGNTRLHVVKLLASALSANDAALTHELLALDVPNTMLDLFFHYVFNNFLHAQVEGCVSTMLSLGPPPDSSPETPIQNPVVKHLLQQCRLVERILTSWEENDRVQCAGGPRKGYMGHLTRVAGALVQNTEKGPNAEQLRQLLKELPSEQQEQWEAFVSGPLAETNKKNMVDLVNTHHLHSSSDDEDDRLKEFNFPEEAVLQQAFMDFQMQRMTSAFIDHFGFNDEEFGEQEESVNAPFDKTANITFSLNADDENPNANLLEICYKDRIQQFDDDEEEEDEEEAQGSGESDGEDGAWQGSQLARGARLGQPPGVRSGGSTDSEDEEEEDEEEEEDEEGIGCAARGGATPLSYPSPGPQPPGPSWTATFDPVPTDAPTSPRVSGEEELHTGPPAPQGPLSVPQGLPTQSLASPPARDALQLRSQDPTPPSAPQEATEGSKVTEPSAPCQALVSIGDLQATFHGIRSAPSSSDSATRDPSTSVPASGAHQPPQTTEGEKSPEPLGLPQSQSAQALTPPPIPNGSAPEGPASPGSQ
# UniProt Q9UBF6, whole entry: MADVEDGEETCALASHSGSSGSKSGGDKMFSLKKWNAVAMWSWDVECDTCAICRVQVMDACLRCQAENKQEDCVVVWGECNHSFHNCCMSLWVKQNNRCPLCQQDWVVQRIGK
# UniProt Q7L523, whole entry: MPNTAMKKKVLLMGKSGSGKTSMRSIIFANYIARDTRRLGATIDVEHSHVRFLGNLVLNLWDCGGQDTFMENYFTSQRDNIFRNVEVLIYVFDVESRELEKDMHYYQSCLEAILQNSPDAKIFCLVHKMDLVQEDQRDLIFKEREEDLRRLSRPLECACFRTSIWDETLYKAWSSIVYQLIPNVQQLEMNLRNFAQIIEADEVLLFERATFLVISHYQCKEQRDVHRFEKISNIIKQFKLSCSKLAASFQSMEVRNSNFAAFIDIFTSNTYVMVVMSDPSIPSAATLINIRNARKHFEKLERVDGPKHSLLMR
# UniProt Q92600, whole entry: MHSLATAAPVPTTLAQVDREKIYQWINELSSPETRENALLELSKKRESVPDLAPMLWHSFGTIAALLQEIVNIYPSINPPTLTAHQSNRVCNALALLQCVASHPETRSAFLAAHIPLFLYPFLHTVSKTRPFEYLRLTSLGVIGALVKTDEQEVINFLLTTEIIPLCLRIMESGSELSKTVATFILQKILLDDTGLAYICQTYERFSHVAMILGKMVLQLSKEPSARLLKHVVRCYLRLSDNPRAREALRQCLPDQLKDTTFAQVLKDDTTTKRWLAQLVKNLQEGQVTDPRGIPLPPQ
# UniProt O95248: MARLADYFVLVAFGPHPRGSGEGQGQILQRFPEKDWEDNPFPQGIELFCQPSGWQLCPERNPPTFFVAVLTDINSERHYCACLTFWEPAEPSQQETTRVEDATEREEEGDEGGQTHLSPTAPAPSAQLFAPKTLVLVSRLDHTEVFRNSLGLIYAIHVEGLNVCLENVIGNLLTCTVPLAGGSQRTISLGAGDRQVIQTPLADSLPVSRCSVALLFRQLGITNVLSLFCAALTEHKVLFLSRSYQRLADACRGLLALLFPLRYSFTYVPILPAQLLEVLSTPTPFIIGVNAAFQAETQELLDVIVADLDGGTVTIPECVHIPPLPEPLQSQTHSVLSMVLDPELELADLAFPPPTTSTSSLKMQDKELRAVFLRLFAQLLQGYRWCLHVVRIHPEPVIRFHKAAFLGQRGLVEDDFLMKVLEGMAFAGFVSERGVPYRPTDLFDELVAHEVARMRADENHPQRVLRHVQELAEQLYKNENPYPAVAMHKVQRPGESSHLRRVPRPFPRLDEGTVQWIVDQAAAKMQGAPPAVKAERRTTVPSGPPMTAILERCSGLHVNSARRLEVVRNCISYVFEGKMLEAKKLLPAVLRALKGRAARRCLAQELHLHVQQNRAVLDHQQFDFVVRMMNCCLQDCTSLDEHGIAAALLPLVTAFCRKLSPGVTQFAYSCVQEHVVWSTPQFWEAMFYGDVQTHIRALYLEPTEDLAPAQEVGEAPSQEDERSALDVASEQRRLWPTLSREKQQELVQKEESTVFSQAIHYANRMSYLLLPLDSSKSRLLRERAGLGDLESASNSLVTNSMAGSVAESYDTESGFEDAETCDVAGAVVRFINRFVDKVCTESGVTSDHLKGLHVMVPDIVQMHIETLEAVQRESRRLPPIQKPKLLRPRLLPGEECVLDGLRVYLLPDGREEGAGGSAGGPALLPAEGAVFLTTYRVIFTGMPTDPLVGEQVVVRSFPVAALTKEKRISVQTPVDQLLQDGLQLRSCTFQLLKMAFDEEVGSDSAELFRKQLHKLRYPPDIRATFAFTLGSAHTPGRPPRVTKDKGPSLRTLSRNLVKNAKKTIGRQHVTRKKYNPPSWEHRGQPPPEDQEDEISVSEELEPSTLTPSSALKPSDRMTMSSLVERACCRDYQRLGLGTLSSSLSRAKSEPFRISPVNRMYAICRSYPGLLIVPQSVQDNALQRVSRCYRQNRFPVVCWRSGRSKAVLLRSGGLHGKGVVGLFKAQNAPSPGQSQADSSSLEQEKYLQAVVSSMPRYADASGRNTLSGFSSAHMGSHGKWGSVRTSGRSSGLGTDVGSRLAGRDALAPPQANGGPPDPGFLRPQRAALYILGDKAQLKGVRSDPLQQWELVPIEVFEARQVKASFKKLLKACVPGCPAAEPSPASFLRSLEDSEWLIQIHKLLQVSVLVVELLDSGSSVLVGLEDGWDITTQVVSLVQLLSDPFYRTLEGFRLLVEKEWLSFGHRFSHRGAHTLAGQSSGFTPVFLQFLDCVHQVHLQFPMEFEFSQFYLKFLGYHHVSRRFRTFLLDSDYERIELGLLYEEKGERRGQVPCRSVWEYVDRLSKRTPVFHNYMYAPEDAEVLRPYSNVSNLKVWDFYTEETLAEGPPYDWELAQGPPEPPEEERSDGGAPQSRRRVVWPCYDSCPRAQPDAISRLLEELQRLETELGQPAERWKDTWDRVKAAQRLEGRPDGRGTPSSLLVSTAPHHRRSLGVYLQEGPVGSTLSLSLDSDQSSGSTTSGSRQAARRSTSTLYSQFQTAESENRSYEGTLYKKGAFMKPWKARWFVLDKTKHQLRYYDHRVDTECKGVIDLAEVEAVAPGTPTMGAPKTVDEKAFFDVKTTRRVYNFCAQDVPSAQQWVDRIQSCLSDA
# UniProt Q8IXW5, whole entry: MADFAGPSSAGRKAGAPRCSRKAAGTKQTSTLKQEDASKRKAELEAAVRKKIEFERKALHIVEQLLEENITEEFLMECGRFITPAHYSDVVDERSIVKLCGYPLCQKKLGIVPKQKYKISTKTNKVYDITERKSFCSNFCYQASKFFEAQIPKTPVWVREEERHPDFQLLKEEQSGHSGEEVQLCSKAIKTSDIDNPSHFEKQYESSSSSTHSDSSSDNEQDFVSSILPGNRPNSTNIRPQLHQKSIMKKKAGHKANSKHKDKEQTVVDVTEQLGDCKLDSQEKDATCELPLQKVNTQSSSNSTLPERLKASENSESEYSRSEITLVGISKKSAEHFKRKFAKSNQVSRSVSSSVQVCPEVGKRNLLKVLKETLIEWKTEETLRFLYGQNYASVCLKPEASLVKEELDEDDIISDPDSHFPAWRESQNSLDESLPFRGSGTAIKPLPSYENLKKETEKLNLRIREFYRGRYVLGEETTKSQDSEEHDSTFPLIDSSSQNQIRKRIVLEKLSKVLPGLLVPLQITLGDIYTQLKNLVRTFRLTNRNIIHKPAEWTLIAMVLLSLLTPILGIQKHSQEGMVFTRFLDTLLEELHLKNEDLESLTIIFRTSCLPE
# UniProt Q9Y2Q5, whole entry: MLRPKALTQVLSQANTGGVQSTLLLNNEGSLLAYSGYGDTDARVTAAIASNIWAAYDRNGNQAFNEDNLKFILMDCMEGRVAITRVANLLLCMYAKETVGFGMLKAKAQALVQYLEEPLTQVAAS
# UniProt O94855: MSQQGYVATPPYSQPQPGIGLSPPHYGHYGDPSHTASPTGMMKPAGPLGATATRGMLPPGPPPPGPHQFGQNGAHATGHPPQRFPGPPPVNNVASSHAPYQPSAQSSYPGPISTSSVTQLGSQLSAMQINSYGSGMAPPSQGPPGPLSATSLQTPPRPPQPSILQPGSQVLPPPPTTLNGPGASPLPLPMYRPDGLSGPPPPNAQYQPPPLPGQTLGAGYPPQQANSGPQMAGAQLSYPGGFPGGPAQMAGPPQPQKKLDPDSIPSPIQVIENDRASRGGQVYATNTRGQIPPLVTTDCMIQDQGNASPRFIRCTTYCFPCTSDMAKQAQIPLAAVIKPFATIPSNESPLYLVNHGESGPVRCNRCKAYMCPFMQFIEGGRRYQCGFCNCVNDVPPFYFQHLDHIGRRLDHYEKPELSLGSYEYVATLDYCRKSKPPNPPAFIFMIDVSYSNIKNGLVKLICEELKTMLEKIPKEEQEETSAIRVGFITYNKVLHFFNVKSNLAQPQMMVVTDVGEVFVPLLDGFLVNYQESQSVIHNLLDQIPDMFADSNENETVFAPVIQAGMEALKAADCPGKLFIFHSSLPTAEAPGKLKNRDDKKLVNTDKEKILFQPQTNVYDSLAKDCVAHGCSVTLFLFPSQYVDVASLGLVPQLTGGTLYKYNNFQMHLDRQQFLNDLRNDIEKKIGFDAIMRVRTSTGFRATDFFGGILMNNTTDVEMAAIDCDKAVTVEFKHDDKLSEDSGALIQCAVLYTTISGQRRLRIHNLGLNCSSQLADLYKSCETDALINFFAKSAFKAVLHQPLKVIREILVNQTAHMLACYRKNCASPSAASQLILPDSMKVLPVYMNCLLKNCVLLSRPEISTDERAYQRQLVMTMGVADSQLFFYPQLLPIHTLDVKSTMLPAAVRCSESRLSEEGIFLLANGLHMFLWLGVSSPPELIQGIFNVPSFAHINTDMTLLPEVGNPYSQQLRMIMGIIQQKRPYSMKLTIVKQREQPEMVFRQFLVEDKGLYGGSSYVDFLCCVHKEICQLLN
# UniProt O00442: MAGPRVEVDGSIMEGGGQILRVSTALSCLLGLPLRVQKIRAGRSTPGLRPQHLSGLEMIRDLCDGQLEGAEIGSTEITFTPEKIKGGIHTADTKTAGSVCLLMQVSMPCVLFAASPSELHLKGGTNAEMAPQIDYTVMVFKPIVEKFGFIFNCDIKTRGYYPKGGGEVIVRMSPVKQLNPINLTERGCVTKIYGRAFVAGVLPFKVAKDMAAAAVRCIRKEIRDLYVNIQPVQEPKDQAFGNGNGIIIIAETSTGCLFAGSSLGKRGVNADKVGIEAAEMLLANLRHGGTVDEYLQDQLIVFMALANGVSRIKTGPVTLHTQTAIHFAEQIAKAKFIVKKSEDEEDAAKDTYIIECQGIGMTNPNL
# The other results are listed elsewhere or left out.
# Compound: COc1ccc(Cn2ccc3cc(C)c(C(=O)NO)cc32)cc1
# Test: dose-dependent thermal stabilisation call (2D-TPP, DLPTP, 10% FDR) (binary (1 = stabilised)); higher = stabilised by the compound
# Conditions: system: HL-60 intact cells; concentration range 0.04-10 µM
# Protocol: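 2D thermal proteome profiling in intact HL-60 cells treated with BRD-3811 (0, 0.04, 0.29, 2, 10 uM) for 90 min at 37 C, then heated 3 min at one of 12 temperatures (42-63.9 C). Soluble protein was quantified by TMT10 MS. The value is the DLPTP call of the paper: dose-dependent thermal stabilisation over all temperatures at 10% FDR (F-test of a dose-response against a flat model); one experiment, one call per tested protein.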
row,Target,dose-dependent thermal stabilisation call
1,RTF1 (UniProt Q92541),inactive: 0
2,SEC16A (UniProt O15027),inactive: 0
3,RPS17 (UniProt P08708),inactive: 0
4,RPL28 (UniProt P46779),inactive: 0
5,SAMHD1 (UniProt Q9Y3Z3),inactive: 0
6,SBDS (UniProt Q9Y3A5),inactive: 0
7,RPS15 (UniProt P62841),inactive: 0
8,SAPS1 (UniProt Q9UPN7),inactive: 0
9,RPS25 (UniProt P62851),inactive: 0
10,RPL38 (UniProt P63173),inactive: 0
11,RPS14 (UniProt P62263),inactive: 0
12,RNF7 (UniProt Q9UBF6),inactive: 0
13,RRAGA (UniProt Q7L523),inactive: 0
14,RQCD1 (UniProt Q92600),inactive: 0
15,SBF1 (UniProt O95248),inactive: 0
16,RPL10A (UniProt P62906),inactive: 0
17,RRM2B (UniProt Q7LG56),inactive: 0
18,RPAP2 (UniProt Q8IXW5),inactive: 0

row,Target,dose-dependent thermal stabilisation call
1,RPSA (UniProt P08865),inactive: 0
2,SEC24C (UniProt P53992),inactive: 0
3,ROBLD3 (UniProt Q9Y2Q5),inactive: 0
4,SEC24D (UniProt O94855),inactive: 0
5,RPN2 (UniProt P04844),inactive: 0
6,SCAMP2 (UniProt O15127),inactive: 0
7,RPS27A (UniProt P62979),inactive: 0
8,RTCD1 (UniProt O00442),inactive: 0
9,SAPS3 (UniProt Q5H9R7),inactive: 0
10,RUVBL1 (UniProt Q9Y265),inactive: 0
11,SCRIB,inactive: 0
12,RPS15A (UniProt P62244),inactive: 0
13,SAMM50 (UniProt Q9Y512),inactive: 0
14,RRS1 (UniProt Q15050),inactive: 0
15,RPL37A (UniProt P61513),inactive: 0
16,SDHC (UniProt Q99643),inactive: 0
17,SCYL1BP1 (UniProt Q5T7V8),inactive: 0

# Some of the entries above, reformatted:
row	Target	dose-dependent thermal stabilisation call
7	RPS27A (UniProt P62979)	inactive: 0
8	RTCD1 (UniProt O00442)	inactive: 0
